Measurements published in patent US10526389B2, “Peptides and combinations of peptides for use in immunotherapy against lung cancer, including NSCLC and other cancers” (Immatics Biotechnologies GmbH, priority 2015, dated 2020).

Experiments:
NSCLC tumor samples = assay: Absolute quantitation of peptide copies per cell (nanoLC-MS/MS); design: species or system human
[1] = tested on: HLA-A*24-positive lung cancer (NSCLC) samples; assay: Relative LC-MS quantitation of HLA-A*24 peptide presentation on tumors vs normal tissues; design: species or system human; key: very highly over-presented on tumors compared to a panel of normal tissues (+++); highly over-presented on tumors compared to a panel of normal (healthy) tissues (++); over-presented on tumors compared to a panel of normal tissues (+); conditions: HLA-A*24 peptides; tumors compared to a panel of normal tissues
[2] = tested on: HLA-A*02-positive lung cancer (NSCLC) samples; assay: Relative LC-MS quantitation of HLA-A*02 peptide presentation on tumors vs normal tissues; design: species or system human; key to Peptide Presentation (presentation score): very highly over-presented on tumors compared to a panel of normal tissues (+++); highly over-presented on tumors compared to a panel of normal (healthy) tissues (++); over-presented on tumors compared to a panel of normal tissues (+); conditions: HLA-A*02 peptides; for Peptide Presentation (presentation score): tumors compared to a panel of normal tissues; for Other relevant organs/diseases (additional tumour types on which the peptide was found): over-presented on >5% of measured tumour samples, or presented on >5% with ratio of geometric means tumour vs normal >3
[3] = tested on: HLA-A*24-positive lung cancer (NSCLC) samples; assay: Relative LC-MS quantitation of HLA-A*24 peptide presentation on tumors vs normal tissues; design: species or system human; conditions: for Other relevant organs/diseases (additional tumor types on which the peptide was found): over-presented on >5% of measured tumor samples, or presented on >5% with ratio of geometric means tumor vs normal >3
[4] = tested on: source genes of the peptides (mRNA) in tumors vs normal tissues; assay: Expression profiling of genes encoding the peptides (Affymetrix microarray); design: species or system human; key: very highly over-expressed in tumors compared to a panel of normal tissues (+++); highly over-expressed in tumors compared to a panel of normal tissues (++); over-expressed in tumors compared to a panel of normal tissues (+); conditions: tumors compared to a panel of normal tissues
[5] = tested on: HLA-A*24-positive lung cancer (NSCLC) samples; assay: Relative LC-MS quantitation of HLA-A*24 peptide presentation on tumors vs normal tissues; design: species or system human; key: very highly over-presented on tumors compared to a panel of normal tissues (+++); highly over-presented on tumors compared to a panel of normal tissues (++); over-presented on tumors compared to a panel of normal tissues (+); conditions: HLA-A*24 peptides; tumors compared to a panel of normal tissues

Row | Substance | Copies per cell (median) (NSCLC tumor samples) | Peptide Presentation (presentation score) [1] | other results
1 | COL6A3-001 (SYLQAANAL; listed as Homo sapiens) | ++++ (>=10,000 = ++++) | +++ | 
2 | FKBP10-002 (TYIGQGYII; listed as Homo sapiens) | ++ (>=100 = ++) | +++ | 
3 | COL6A3-012 (RYPPPVREF; listed as Homo sapiens) | +++ (>=1,000 +++) | +++ | 
4 | FLFDGSANL (listed as Homo sapiens) [SEQ ID No. 13] | +++ (>=1,000 +++) |  | Peptide Presentation (presentation score) [2]: +++
5 | 39: peptide found in DOCK2 (gene looked up) (KFLEHTNFEF; listed as Homo sapiens) [compound 39] |  |  | Other relevant organs/diseases (additional tumor types on which the peptide was found) ([3]; HLA-A*24 peptides): Liver; Gene Expression (expression score of source gene) ([4]; HLA-A*24 peptides): +
6 | YVYQNNIYL (listed as Homo sapiens) [SEQ ID No. 115] | ++ (>=100 = ++) |  | Peptide Presentation (presentation score) [2]: +
7 | COL12A1-002 (FLVDGSWSV; listed as Homo sapiens) | ++ (>=100 = ++) |  | 
8 | 161: peptide found in CDK1 (gene looked up) (LYQILQGIVF; listed as Homo sapiens) [compound 161] |  |  | Other relevant organs/diseases (additional tumor types on which the peptide was found) ([3]; HLA-A*24 peptides): Kidney, Stomach, Liver; Gene Expression (expression score of source gene) ([4]; HLA-A*24 peptides): +
9 | 38: peptide found in GPNMB (gene looked up) (VFLNRAKAVFF; listed as Homo sapiens) [compound 38] |  |  | Other relevant organs/diseases (additional tumor types on which the peptide was found) ([3]; HLA-A*24 peptides): Liver; Gene Expression (expression score of source gene) ([4]; HLA-A*24 peptides): +
10 | NLIEKSIYL (listed as Homo sapiens) [SEQ ID No. 141] | ++ (>=100 = ++) |  | 
11 | ADAM8-001 (KLLTEVHAA; listed as Homo sapiens) | + (<100 = +) |  | 
12 | BUB1B-001: peptide found in BUB1B (gene looked up) (KIVDFSYSV) | + (<100 = +) |  | 
13 | VYTSWQIPQKF (listed as Homo sapiens) [SEQ ID No. 23] | +++ (>=1,000 +++) | +++ | 
14 | 47: peptide found in ENO1 (gene looked up) (RYISPDQLADL; listed as Homo sapiens) [compound 47] |  |  | Additional Entities (additional tumor types showing over-presentation) ([3]; HLA-A*24 peptides, amendment of Table 10): HCC; Other relevant organs/diseases (additional tumor types on which the peptide was found) ([3]; HLA-A*24 peptides): Kidney; Gene Expression (expression score of source gene) ([4]; HLA-A*24 peptides): +
15 | VFLNRAKAVFF (listed as Homo sapiens) [SEQ ID No. 38] | +++ (>=1,000 +++) | +++ | 
16 | TLYPHTSQV (listed as Homo sapiens) [SEQ ID No. 140] | + (<100 = +) |  | 
17 | MXRA5-001 (TLSSIKVEV; listed as Homo sapiens) | ++ (>=100 = ++) |  | 
18 | 159: peptide found in MMP12 (gene looked up) (TYKYVDINTF; listed as Homo sapiens) [compound 159] |  |  | Other relevant organs/diseases (additional tumor types on which the peptide was found) ([3]; HLA-A*24 peptides): Stomach; Gene Expression (expression score of source gene) ([4]; HLA-A*24 peptides): +++
19 | RAD54B-001 (SLYKGLLSV; listed as Homo sapiens) | + (<100 = +) |  | 
20 | NYPKSIHSF (listed as Homo sapiens) [SEQ ID No. 24] | +++ (>=1,000 +++) | +++ | 
21 | TYNPEIYVI (listed as Homo sapiens) [SEQ ID No. 35] | ++ (>=100 = ++) | +++ | 
22 | MXRA5-002 (GLTDNIHLV; listed as Homo sapiens) | + (<100 = +) |  | 
23 | MUC16-001 (TYSEKTTLF; listed as Homo sapiens) | ++ (>=100 = ++) | +++ | 
24 | BNC1-001 (VLFPNLKTV) | + (<100 = +) |  | 

Row | Substance | Copies per cell (median) (NSCLC tumor samples) | Peptide Presentation (presentation score) [1] | other results
25 | RLLDSVSRL (listed as Homo sapiens) [SEQ ID No. 121] | ++ (>=100 = ++) |  | Peptide Presentation (presentation score) [2]: +
26 | KLDETNNTL (listed as Homo sapiens) [SEQ ID No. 158] | ++ (>=100 = ++) |  | 
27 | 43: peptide found in ALOX15B (gene looked up) (RYTLHINTL; listed as Homo sapiens) [compound 43] |  |  | Other relevant organs/diseases (additional tumor types on which the peptide was found) ([3]; HLA-A*24 peptides): Prostate; Gene Expression (expression score of source gene) ([4]; HLA-A*24 peptides): +
28 | WNT5A-001 (AMSSKFFLV; listed as Homo sapiens) | ++ (>=100 = ++) |  | 
29 | RYLEKFYGL (listed as Homo sapiens) [SEQ ID No. 26] | +++ (>=1,000 +++) | +++ | 
30 | RFMDGHITF (listed as Homo sapiens) [SEQ ID No. 25] | ++++ (>=10,000 = ++++) | +++ | 
31 | KYLEKYYNL (listed as Homo sapiens) [SEQ ID No. 30] | +++ (>=1,000 +++) | +++ | 
32 | 26: peptide found in MMP12 (gene looked up) (RYLEKFYGL; listed as Homo sapiens) [compound 26] |  |  | Other relevant organs/diseases (additional tumor types on which the peptide was found) ([3]; HLA-A*24 peptides): Stomach, Liver; Gene Expression (expression score of source gene) ([4]; HLA-A*24 peptides): +++
33 | COL6A3-003 (NLLDLDYEL; listed as Homo sapiens) | +++ (>=1,000 +++) |  | 
34 | YYTKGFALLNF (listed as Homo sapiens) [SEQ ID No. 29] | ++ (>=100 = ++) | +++ | 
35 | DONSON-001 (VLYPHEPTAV; listed as Homo sapiens) | + (<100 = +) |  | 
36 | 29: peptide found in PLOD2 (gene looked up) (YYTKGFALLNF; listed as Homo sapiens) [compound 29] |  |  | cell lines, normal tissues and cancer tissues where the peptide has been detected ([3]; FIG. 1F legend, A*24): 30 cancer tissues (1 brain cancer, 3 kidney cancers, 2 liver cancers, 22 lung cancers, 2 stomach cancers); Other relevant organs/diseases (additional tumor types on which the peptide was found) ([3]; HLA-A*24 peptides): Kidney, Brain, Liver; Gene Expression (expression score of source gene) ([4]; HLA-A*24 peptides): +
37 | OLFML2B-001 (YYGNTLVEF; listed as Homo sapiens) | +++ (>=1,000 +++) | +++ | 
38 | KDM6B-001 (RYGGSFAEL; listed as Homo sapiens) |  |  | Peptide Presentation (presentation score) [5]: ++
39 | 142: peptide found in SLC34A2 (gene looked up) (VLLPVEVATHYL; listed as Homo sapiens) [compound 142] |  |  | Other relevant organs/diseases (additional tumour types on which the peptide was found) [2]: Ovary; Gene Expression (expression score of source gene) ([4]; HLA-A*02 peptides): ++
40 | 131: peptide found in CCNB1 (gene looked up) (ALVQDLAKA; listed as Homo sapiens) [compound 131] |  |  | Other relevant organs/diseases (additional tumour types on which the peptide was found) [2]: Kidney, Stomach, Colon, Rectum, Liver, Pancreas, Ovary; Gene Expression (expression score of source gene) ([4]; HLA-A*02 peptides): +
41 | TTC13-001 (RYLEYFEKI; listed as Homo sapiens) | +++ (>=1,000 +++) | +++ | 
42 | 120: peptide found in IGF2BP3 (gene looked up) (KIQEILTQV; listed as Homo sapiens) [compound 120] |  |  | Other relevant organs/diseases (additional tumour types on which the peptide was found) [2]: Kidney, Brain, Stomach, Colon, Rectum, Liver, Pancreas, Leukocytes, Ovary, Esophagus; Gene Expression (expression score of source gene) ([4]; HLA-A*02 peptides): ++
43 | KIQEILTQV (listed as Homo sapiens) [SEQ ID No. 120] | ++ (>=100 = ++) |  | Peptide Presentation (presentation score) [2]: +++
44 | TYKYVDINTF (listed as Homo sapiens) [SEQ ID No. 159] | ++ (>=100 = ++) | +++ | 
45 | COL6A3-013 (EYQPEMLEKF; listed as Homo sapiens) | ++ (>=100 = ++) | +++ | 
46 | LYQILQGIVF (listed as Homo sapiens) [SEQ ID No. 161] | +++ (>=1,000 +++) | +++ | 
47 | 31: peptide found in KRT10 (gene looked up) (SYLDKVRAL; listed as Homo sapiens) [compound 31] |  |  | Other relevant organs/diseases (additional tumor types on which the peptide was found) ([3]; HLA-A*24 peptides): Stomach; Gene Expression (expression score of source gene) ([4]; HLA-A*24 peptides): +

For some of these results: Expression grades refer to the transcript from which the peptide derives; gene names, where given, were looked up from the sequence.
